Among the data in the supplement of paper PMC10849652 are log2 fold change values, retold here.

Amino acid sequences for entries named in this document (tags omitted). A change or cut given only in a name is not applied to a line headed by its entry.
UniProt Q08431: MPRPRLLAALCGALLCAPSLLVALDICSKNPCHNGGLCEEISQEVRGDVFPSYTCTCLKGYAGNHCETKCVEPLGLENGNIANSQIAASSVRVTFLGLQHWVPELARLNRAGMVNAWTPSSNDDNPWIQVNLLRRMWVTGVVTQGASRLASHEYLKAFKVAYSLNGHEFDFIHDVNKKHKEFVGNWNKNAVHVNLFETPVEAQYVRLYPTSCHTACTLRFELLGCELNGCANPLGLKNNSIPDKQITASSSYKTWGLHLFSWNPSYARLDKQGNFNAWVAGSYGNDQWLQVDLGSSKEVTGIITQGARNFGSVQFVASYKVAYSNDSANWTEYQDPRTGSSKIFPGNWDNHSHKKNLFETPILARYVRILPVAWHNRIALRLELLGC
UniProt Q6P2C8: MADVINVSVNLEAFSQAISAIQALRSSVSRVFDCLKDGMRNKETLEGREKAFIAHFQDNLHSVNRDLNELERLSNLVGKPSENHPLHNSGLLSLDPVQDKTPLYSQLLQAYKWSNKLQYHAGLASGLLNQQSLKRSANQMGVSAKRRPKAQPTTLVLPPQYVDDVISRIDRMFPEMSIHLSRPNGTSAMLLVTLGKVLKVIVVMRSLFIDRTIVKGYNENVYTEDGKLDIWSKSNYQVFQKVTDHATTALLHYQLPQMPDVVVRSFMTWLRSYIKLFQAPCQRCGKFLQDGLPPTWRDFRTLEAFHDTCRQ
UniProt O95568: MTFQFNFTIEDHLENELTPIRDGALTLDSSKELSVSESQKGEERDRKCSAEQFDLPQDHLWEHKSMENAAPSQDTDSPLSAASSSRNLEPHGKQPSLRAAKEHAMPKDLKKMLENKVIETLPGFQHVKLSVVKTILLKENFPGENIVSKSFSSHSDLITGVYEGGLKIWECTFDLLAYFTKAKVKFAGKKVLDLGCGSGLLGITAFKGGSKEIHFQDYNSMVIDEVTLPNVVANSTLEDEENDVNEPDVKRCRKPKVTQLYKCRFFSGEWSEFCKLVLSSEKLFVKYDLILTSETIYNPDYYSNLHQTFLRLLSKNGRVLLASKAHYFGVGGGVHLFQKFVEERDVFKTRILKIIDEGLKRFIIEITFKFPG
UniProt Q15648, whole entry, looked up: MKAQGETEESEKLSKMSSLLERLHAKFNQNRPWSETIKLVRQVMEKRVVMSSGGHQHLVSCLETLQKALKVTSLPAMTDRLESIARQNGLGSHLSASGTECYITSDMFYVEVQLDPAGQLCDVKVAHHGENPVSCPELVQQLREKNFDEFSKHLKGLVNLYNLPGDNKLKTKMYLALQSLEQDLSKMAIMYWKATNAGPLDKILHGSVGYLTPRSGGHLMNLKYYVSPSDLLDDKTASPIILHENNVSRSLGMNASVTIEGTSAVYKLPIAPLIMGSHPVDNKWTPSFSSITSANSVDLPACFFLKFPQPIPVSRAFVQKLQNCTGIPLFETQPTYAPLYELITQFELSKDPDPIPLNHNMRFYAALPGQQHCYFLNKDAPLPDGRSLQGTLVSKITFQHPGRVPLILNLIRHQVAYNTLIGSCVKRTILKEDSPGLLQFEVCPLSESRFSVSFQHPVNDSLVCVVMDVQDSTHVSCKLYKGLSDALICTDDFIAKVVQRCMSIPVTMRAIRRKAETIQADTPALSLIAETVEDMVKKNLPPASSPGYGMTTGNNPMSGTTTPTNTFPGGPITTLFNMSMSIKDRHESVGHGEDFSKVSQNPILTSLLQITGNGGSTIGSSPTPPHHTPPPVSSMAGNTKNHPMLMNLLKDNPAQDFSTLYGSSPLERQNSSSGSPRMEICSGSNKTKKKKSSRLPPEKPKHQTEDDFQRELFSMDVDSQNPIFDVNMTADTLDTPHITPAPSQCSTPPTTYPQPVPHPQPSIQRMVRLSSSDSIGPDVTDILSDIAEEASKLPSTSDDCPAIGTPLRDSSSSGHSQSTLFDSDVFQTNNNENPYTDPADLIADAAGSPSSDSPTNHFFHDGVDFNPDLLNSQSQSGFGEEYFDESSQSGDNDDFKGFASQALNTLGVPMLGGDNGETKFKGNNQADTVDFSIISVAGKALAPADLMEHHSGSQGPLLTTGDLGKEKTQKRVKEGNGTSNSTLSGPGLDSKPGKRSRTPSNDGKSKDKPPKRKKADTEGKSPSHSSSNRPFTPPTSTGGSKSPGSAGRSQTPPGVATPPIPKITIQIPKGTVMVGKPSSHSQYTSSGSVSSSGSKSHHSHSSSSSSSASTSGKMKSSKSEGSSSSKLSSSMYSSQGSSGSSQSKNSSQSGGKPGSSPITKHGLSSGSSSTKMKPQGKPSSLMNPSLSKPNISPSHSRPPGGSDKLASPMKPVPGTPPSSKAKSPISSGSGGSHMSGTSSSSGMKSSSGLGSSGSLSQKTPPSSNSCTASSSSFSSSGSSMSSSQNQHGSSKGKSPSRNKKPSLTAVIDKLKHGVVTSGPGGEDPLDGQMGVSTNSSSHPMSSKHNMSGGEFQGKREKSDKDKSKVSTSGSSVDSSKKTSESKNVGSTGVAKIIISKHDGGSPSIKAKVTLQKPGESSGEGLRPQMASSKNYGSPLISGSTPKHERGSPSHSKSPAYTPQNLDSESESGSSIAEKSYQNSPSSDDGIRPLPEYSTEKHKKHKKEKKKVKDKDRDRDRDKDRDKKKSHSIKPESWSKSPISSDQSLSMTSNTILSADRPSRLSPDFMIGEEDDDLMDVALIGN
UniProt Q6P9B6: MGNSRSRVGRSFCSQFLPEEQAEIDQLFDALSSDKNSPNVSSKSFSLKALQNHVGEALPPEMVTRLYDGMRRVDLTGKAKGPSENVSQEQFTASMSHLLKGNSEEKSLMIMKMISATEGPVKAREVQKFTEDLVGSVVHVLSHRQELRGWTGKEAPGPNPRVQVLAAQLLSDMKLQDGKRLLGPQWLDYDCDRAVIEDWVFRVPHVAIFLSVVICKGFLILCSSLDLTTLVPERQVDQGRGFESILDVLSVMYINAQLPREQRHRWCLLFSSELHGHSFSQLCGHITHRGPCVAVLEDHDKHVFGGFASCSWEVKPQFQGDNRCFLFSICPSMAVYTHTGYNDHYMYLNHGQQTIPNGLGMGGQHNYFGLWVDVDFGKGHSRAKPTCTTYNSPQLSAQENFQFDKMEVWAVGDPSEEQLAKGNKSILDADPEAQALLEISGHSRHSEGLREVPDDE
UniProt O95402: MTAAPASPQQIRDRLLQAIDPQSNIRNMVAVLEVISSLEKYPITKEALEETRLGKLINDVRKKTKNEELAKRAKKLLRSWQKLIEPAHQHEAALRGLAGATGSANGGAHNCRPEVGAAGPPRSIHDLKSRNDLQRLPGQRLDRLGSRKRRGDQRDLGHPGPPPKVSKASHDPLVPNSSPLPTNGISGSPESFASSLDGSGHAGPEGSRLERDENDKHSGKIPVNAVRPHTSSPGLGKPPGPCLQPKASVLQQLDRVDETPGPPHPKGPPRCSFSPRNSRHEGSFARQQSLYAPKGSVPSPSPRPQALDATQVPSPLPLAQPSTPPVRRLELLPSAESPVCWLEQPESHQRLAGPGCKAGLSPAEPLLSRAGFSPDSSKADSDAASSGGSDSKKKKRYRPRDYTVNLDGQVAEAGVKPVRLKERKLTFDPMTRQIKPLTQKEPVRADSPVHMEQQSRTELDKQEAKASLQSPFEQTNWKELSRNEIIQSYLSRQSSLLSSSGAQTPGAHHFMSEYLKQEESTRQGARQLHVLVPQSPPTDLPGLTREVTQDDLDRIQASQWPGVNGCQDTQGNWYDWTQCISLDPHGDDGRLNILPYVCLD
UniProt Q6N075: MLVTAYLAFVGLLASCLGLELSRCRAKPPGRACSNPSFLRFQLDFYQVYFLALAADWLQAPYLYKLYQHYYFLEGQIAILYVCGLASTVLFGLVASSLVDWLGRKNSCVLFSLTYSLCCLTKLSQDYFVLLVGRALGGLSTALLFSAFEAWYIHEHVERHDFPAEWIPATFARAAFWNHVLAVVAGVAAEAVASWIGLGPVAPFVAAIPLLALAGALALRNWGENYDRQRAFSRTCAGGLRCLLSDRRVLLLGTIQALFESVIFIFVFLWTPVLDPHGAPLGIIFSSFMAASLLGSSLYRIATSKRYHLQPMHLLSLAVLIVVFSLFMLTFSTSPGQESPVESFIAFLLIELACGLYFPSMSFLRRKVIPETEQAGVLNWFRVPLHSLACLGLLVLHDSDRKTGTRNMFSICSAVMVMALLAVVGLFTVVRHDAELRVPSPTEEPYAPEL
UniProt Q14680: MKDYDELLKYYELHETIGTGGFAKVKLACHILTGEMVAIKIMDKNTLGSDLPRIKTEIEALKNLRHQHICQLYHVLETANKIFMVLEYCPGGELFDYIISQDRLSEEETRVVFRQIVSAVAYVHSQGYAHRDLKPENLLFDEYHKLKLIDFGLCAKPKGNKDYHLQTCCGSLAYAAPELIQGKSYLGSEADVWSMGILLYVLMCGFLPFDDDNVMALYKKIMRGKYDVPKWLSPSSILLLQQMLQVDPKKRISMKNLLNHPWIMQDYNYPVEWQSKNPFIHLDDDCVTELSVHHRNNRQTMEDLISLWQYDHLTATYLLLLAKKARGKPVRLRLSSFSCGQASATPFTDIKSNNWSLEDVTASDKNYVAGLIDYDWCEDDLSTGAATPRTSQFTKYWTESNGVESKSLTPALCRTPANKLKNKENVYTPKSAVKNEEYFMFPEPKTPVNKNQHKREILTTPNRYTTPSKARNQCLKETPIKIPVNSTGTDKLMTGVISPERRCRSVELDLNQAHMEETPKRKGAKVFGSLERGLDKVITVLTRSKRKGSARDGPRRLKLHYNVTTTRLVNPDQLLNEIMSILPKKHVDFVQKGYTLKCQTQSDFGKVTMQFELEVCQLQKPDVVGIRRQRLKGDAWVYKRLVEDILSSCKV
UniProt Q9GZU1, whole entry, looked up: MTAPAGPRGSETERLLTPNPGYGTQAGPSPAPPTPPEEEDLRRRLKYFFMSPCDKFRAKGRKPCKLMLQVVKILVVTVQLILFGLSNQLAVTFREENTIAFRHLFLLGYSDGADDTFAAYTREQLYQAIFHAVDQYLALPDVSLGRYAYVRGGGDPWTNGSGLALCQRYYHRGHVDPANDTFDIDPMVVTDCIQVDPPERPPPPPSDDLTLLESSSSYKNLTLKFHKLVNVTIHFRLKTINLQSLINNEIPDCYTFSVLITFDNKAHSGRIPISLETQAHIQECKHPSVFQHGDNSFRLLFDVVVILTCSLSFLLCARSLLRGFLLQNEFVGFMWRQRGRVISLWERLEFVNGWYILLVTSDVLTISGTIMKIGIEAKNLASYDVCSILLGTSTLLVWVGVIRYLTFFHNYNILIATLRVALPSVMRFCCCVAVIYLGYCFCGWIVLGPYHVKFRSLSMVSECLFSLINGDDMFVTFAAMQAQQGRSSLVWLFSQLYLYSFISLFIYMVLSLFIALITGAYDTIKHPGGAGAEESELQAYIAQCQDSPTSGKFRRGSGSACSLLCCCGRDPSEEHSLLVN

This is one part of the list.

Test in all cases: log2 fold change, soluble protein after heating vs DMSO (PISA); higher = thermal stabilisation; K562 cells, 10 uM, 30 min; active = over 0.2 and 3.5 SD of the protein, either way, in both replicates (recomputed)
Compound in one experiment: CN1CCN(CCOc2cc(OC3CCOCC3)c3c(Nc4c(Cl)ccc5c4OCO5)ncnc3c2)CC1 [saracatinib]
The procedure, abridged:
(§1)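 Quantification of soluble protein used TMTpro 16plex LC-MS/MS, with channel sums equalised. Samples were the supernatant after 21,000xg for 90 min of pooled aliquots from K562 cells (2×10^6 cells/mL) treated with 10 μM compound for 30 min, heated for 3 min over 48°C-58°C, and extracted in PBS with 0.5% NP-40 at 4°C. Values, from duplicates, describe thermal stability against control samples on a log2 fold-change scale.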

Compound in a further experiment: CN1CCN(c2nc(C3=C(c4c[nH]c5ccccc45)C(=O)NC3=O)c3ccccc3n2)CC1 [sotrastaurin]
The essentials: as §1

Compound in another experiment: CN1CCc2c(c3ccccc3n2Cc2ccc(C(=O)NO)cc2)C1 [Tubastatin A]
The essentials:
as §1

Compound in experiment [1]: CNC(=O)C1=CC=CC=C1NC2=NC(=NC=C2Cl)NC3=C(C=C(C=C3)N4CCOCC4)OC
The essentials:
as §1

Compound in the next experiment: CNC(=O)c1ccc(Nc2ncc(C(F)(F)F)c(NCc3nccnc3N(C)S(C)(=O)=O)n2)cc1 [defactinib]
The essentials:
as §1

Compound in the next experiment: CNCc1ccc(-c2[nH]c3cc(F)cc4c3c2CCNC4=O)cc1 [rucaparib]
The procedure, abridged: as §1

Compound in experiment [2]: CNc1nc(-c2ccc3c(N)n[nH]c3c2)cc(N2C[C@@H](C(=O)NC3CCCCC3)CC[C@H]2C)n1
The procedure, abridged: as §1

Compound in another experiment: COC(=O)N[C@@H](C)CNc1nccc(-c2cn(C(C)C)nc2-c2cc(Cl)cc(NS(C)(=O)=O)c2F)n1 [encorafenib]
The procedure, abridged:
as §1

Compound in experiment [3]: COC(=O)[C@H](CCSC)NC(=O)C1=C(C=C(C=C1)NC[C@H](CS)N)C2=CC=CC=C2
The essentials:
as §1

Compound in experiment [4]: COC1=CC=C(C=C1)CN2C=CC3=C2C=C(C=C3)C(=O)NO
The procedure, abridged:
as §1

Compound in the next experiment: CON(C)C(=O)N1N=C(c2cc(F)ccc2F)S[C@@]1(CCCN)c1ccccc1 [filanesib]
The essentials:
as §1

Compound in another experiment: CO[C@H]1C[C@@H]2CC[C@@H](C)[C@@](O)(O2)C(=O)C(=O)N2CCCC[C@H]2C(=O)O[C@H]([C@H](C)C[C@@H]2CC[C@H](n3cnnn3)[C@H](OC)C2)CC(=O)[C@H](C)/C=C(\C)[C@@H](O)[C@@H](OC)C(=O)[C@H](C)C[C@H](C)/C=C/C=C/C=C/1C [zotarolimus]
The procedure, abridged: as §1

Compound in another experiment: COc1cc(C(=O)O)ccc1NC(=O)[C@@H]1N[C@@H](CC(C)(C)C)[C@](C#N)(c2ccc(Cl)cc2F)[C@H]1c1cccc(Cl)c1F [idasanutlin]
The procedure, abridged: as §1

Compound in a further experiment: COc1cc(Nc2ncc3c(n2)-c2ccc(Cl)cc2C(c2c(F)cccc2OC)=NC3)ccc1C(=O)O [alisertib]
The essentials: as §1

Compound in experiment [5]: COc1cc2nc(-c3cc(F)ccc3O)nc(N[C@@H]3CNC[C@H]3C(C)(C)O)c2cc1OC
The essentials: as §1

Compound in a further experiment: COc1cc2ncnc(Nc3ccc(F)c(Cl)c3)c2cc1OCCCN1CCOCC1 [gefitinib]
The essentials:
as §1

Compound in experiment [6]: COc1cccc2cc(-c3nc([C@H]4CC[C@H](C(=O)O)CC4)n4ncnc(N)c34)[nH]c12
The essentials:
as §1

Compound in another experiment: CS(=O)(=O)CCNCc1ccc(-c2ccc3ncnc(Nc4ccc(OCc5cccc(F)c5)c(Cl)c4)c3c2)o1 [lapatinib]
The essentials: as §1

Compound in the next experiment: CS(=O)(=O)N1CCN(Cc2cc3nc(-c4cccc5[nH]ncc45)nc(N4CCOCC4)c3s2)CC1 [pictilisib]
The essentials: as §1

Compound in the next experiment: CN1CC[C@H](c2c(O)cc(O)c3c(=O)cc(-c4ccccc4Cl)oc23)[C@H](O)C1 [alvocidib]
The essentials:
as §1

Turning to MFGE8 (UniProt Q08431), the log2 fold change with saracatinib is inactive: -0.171; with sotrastaurin, inactive: -0.013; with Tubastatin A, inactive: 0.08; in [1], inactive: 0.066; with defactinib it was inactive: 0.099; with rucaparib, inactive: -0.043. Also, the log2 fold change in experiment [2] is inactive: -0.018; in the experiment with encorafenib, inactive: 0.037; in experiment [3], inactive: -0.023; in experiment [4] it was inactive: -0.129; in the experiment with filanesib it was inactive: 0.129; in the experiment with zotarolimus, inactive: -0.03. In addition, the log2 fold change in the experiment with idasanutlin is inactive: 0.05; in the experiment with alisertib it was inactive: -0.147; in [5], inactive: 0.019; in the experiment with gefitinib it was inactive: 0.069; in experiment [6], inactive: -0.124; with lapatinib it was inactive: 0.079. Further, the log2 fold change with pictilisib is inactive: 0.122.

MED27 (UniProt Q6P2C8): the log2 fold change with saracatinib is inactive: -0.095; with sotrastaurin it was inactive: -0.152; in the experiment with alvocidib, inactive: -0.164; in [1], inactive: -0.087; in experiment [2], inactive: 0.022; in the experiment with filanesib, inactive: 0.104. Also, the log2 fold change with zotarolimus is inactive: -0.016; with idasanutlin, inactive: 0.028; in the experiment with alisertib, inactive: 0.072; with gefitinib it was inactive: -0.096; in experiment [6], inactive: 0.151; in the experiment with pictilisib it was inactive: -0.083.

Take METTL18 (UniProt O95568): the log2 fold change is inactive: 0.024 with saracatinib; inactive: 0.066 with sotrastaurin; inactive: -0.037 in the experiment with Tubastatin A; inactive: -0.042 in experiment [1]; inactive: -0.021 in the experiment with defactinib; inactive: -0.041 in the experiment with rucaparib. The log2 fold change in [2] is inactive: -0.031; with encorafenib it was inactive: 0.108; in experiment [3], inactive: -0.176; in experiment [4], active: -0.364; with filanesib it was inactive: 0.009; with zotarolimus, inactive: 0.033. In addition, the log2 fold change with idasanutlin was inactive: -0.022; with alisertib it was inactive: 0.006; in experiment [5], inactive: 0.075; with gefitinib, inactive: -0.033; in experiment [6] it was inactive: 0.057; with lapatinib it was inactive: 0.069. Also, the log2 fold change with pictilisib was inactive: 0.026.

Regarding MED1 (UniProt Q15648), the log2 fold change with saracatinib is inactive: 0.001; with sotrastaurin it was inactive: -0.092; with Tubastatin A, inactive: -0.025; in [1], inactive: 0.042; with defactinib it was inactive: -0.005; with rucaparib it was inactive: 0.067. Moreover, the log2 fold change in experiment [2] was inactive: -0.045; with encorafenib, inactive: 0.009; in experiment [3], inactive: 0.033; in [4] it was inactive: -0.051; with filanesib it was inactive: 0.116; with zotarolimus, inactive: 0.042. For the same target, the log2 fold change in the experiment with idasanutlin was inactive: 0.056; with alisertib, inactive: -0.056; in [5], inactive: -0.063; with gefitinib, inactive: -0.039; in experiment [6], inactive: 0.016; with lapatinib, inactive: 0.114. In the experiment with pictilisib, the log2 fold change is inactive: 0.077.

For MEAK7 (UniProt Q6P9B6), the log2 fold change was inactive: 0.043 with saracatinib; inactive: -0.004 with sotrastaurin; inactive: 0.028 with Tubastatin A; inactive: -0.088 in experiment [1]; inactive: -0.041 in the experiment with defactinib; inactive: 0.008 with rucaparib. Also, the log2 fold change is inactive: 0.026 in experiment [2]; inactive: 0.02 in the experiment with encorafenib; inactive: 0.088 in [3]; inactive: -0.046 in [4]; inactive: -0.109 with filanesib; inactive: -0.002 in the experiment with zotarolimus. The log2 fold change is inactive: -0.013 with idasanutlin; inactive: -0.012 with alisertib; inactive: -0.101 in [5]; inactive: -0.142 with gefitinib; inactive: -0.055 in experiment [6]; inactive: 0.087 with lapatinib. Further, the log2 fold change with pictilisib was inactive: -0.063.

Turning to MED26 (UniProt O95402), the log2 fold change with saracatinib is inactive: -0.133; with sotrastaurin it was inactive: 0.054; in the experiment with alvocidib it was inactive: -0.126; in the experiment with defactinib, inactive: -0.036; in experiment [2] it was inactive: 0; in [3] it was inactive: -0.12. Further, the log2 fold change in experiment [4] was inactive: 0.045; with filanesib, inactive: -0.027; in the experiment with zotarolimus it was inactive: 0.044; in the experiment with idasanutlin it was inactive: -0.1; in [5], inactive: -0.013; in the experiment with lapatinib it was inactive: -0.035. The log2 fold change with pictilisib was inactive: -0.109.

As for MFSD5 isoform 2 (UniProt Q6N075), the log2 fold change with saracatinib is inactive: 0.058; in the experiment with sotrastaurin it was inactive: 0.122; with Tubastatin A it was inactive: -0.093; in experiment [1] it was inactive: 0.069; with defactinib it was inactive: 0.039; with rucaparib, inactive: 0.058. Further, the log2 fold change in [2] was inactive: -0.065; with encorafenib, inactive: -0.022; in experiment [3] it was inactive: 0.012; in [4] it was inactive: 0.037; with filanesib it was inactive: 0.018; with zotarolimus, inactive: -0.149. For the same target, the log2 fold change was inactive: -0.058 with idasanutlin; inactive: 0.011 with alisertib; inactive: -0.026 in experiment [5]; inactive: 0.039 with gefitinib; inactive: 0.12 in [6]; inactive: 0.045 with lapatinib. Also, in the experiment with pictilisib, the log2 fold change is inactive: 0.062.

On to MELK (UniProt Q14680), for which the log2 fold change with saracatinib is inactive: -0.005; in the experiment with sotrastaurin, inactive: 0.166; with Tubastatin A it was inactive: 0.074; in [1] it was inactive: -0.347; with rucaparib, inactive: 0.125; in experiment [2], inactive: 0.196. Moreover, the log2 fold change was inactive: 0.06 in the experiment with encorafenib; inactive: 0.072 in experiment [4]; inactive: -0.116 with filanesib; inactive: -0.019 with zotarolimus; inactive: 0.061 with idasanutlin; active: -3.59 in [5]. Also, the log2 fold change was inactive: 0.253 with gefitinib, inactive: -0.006 with lapatinib and inactive: -0.079 with pictilisib.

For MCOLN1 (UniProt Q9GZU1), the log2 fold change in the experiment with saracatinib was inactive: -0.239; with sotrastaurin, inactive: -0.04; in [1] it was inactive: 0.049; with rucaparib, inactive: 0.119; in experiment [2] it was inactive: -0.109; in the experiment with encorafenib it was inactive: 0.033. In addition, the log2 fold change in [4] is inactive: 0.137; in the experiment with filanesib it was inactive: -0.092; in the experiment with alisertib it was inactive: -0.028; in experiment [5], inactive: -0.041; with gefitinib it was inactive: -0.095; in [6], inactive: 0.068. Also, the log2 fold change with lapatinib was inactive: 0.035; with pictilisib, inactive: 0.137.
